Assay [1] concerns the target T1, V5-KSR (Drosophila) (UniProt Q24171).
T1 sequence: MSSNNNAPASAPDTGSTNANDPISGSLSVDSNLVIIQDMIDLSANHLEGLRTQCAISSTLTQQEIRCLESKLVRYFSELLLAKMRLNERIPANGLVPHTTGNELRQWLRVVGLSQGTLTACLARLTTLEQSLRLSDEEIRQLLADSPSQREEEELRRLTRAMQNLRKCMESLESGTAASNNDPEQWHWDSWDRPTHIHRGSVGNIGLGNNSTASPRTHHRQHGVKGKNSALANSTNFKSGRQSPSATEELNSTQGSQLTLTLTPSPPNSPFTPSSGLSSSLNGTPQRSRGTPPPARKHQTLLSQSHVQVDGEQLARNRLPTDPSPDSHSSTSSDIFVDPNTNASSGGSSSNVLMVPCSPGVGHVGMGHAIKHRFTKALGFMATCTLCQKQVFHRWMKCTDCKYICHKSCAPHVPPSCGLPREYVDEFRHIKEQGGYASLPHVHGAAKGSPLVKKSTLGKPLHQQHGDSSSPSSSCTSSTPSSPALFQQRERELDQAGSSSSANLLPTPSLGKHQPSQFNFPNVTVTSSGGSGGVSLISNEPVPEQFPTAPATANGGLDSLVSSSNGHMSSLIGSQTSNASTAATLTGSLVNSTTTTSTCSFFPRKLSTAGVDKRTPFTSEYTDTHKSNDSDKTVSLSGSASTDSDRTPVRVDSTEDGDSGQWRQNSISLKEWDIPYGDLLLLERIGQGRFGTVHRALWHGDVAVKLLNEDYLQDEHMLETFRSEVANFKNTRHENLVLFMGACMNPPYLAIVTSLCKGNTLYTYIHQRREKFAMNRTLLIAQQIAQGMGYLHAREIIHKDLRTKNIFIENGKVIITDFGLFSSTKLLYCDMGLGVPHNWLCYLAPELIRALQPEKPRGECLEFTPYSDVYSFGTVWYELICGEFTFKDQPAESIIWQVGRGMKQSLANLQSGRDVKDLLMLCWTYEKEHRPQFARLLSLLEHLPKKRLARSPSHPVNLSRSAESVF
Nature of the assay: co-IP; anti-V5 immunoprecipitation of V5-KSR from S2 total lysates, protein A/G agarose, overnight at 4 °C; MEK blotted; without or with co-expressed CNK^2–549–HYP.

The chains behind the UniProt entries cited, without tags or fusion partners. Where a name states a change or a piece, a line headed by the entry shows the natural chain unless it says otherwise.
UniProt Q24324: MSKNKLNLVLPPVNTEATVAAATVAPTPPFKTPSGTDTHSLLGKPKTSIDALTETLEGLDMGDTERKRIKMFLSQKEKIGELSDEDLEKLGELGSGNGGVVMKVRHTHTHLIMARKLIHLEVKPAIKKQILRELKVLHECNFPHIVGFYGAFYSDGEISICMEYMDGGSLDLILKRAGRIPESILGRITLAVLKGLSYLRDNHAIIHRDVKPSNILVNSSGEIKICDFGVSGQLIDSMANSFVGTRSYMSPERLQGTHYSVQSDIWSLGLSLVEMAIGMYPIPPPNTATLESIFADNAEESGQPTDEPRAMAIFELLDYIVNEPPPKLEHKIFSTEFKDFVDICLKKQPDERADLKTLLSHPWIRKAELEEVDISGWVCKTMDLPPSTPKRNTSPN

Assay [2] deals with T2, Flag-CNK^2–549 (Drosophila) (UniProt Q7KNQ9).
T2 sequence: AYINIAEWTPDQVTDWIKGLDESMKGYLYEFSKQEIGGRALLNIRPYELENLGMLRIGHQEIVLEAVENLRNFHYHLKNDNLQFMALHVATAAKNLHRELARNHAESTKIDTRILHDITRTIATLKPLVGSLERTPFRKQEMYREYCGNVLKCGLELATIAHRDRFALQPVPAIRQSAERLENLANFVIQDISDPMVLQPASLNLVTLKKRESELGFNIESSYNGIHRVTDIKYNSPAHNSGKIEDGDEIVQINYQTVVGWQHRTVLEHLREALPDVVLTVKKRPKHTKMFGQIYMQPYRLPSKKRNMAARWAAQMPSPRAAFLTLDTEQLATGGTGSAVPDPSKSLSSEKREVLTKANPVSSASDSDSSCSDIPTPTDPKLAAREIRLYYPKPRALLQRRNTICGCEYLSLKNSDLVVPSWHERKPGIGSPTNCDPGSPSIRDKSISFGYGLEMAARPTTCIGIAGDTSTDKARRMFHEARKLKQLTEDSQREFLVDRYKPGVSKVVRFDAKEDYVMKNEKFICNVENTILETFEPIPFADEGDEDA
Nature of the assay: pull-down; GST-HYP as bait, CNK, KSR and MEK variants co-expressed in S2 cells (Fig. 2c,d; Extended Data Fig. 7e); total lysates, overnight at 4 °C; immunoblot. (In general: Immunoblotting shows a protein as a band on a membrane.)

The target of assay [3] is T3, CNK^2–330 (Drosophila) (UniProt Q7KNQ9).
T3 sequence: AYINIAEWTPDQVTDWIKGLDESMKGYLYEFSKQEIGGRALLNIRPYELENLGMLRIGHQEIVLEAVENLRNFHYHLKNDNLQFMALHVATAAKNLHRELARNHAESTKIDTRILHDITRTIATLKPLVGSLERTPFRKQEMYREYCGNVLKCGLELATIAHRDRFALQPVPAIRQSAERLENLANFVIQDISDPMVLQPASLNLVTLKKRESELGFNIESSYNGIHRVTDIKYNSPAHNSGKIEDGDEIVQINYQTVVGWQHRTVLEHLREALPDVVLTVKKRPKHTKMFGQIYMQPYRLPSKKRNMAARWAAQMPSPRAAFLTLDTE
Nature of the assay: cryo-EM structure; 6 µM KSR–MEK complex mixed with 6.7 µM CNK–HYP complex, 1 mM MgCl2, 1 mM AMP–PNP, 50 µM trametinib, 4 °C; both purified.

Assay [4] addresses T4, GST-CNK^2–549 (Drosophila) (UniProt Q7KNQ9).
T4 sequence: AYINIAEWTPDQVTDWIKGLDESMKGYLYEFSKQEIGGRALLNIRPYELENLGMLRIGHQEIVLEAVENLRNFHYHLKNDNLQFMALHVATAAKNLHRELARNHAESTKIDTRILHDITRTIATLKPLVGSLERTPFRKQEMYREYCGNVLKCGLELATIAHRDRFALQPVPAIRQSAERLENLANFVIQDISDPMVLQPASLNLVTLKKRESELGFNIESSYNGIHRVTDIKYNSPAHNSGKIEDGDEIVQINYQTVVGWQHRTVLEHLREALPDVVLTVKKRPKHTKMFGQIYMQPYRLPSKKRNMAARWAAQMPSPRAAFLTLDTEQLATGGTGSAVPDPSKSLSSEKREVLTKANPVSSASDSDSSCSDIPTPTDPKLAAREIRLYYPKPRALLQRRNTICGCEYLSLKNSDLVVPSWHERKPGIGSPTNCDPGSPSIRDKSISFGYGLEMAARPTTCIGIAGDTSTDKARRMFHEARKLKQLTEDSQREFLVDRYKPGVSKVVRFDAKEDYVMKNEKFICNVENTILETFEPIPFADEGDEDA
Nature of the assay: pull-down; GST-CNK fragments as bait; S2 cells co-transfected with Pyo-HYP, V5-KSR and Myc-MEK alone, in pairs or all three; total lysates in Triton lysis buffer (50 mM Tris pH 7.5, 150 mM NaCl, 0.2% Triton X-100), overnight at 4 °C; immunoblot.

Assay [5] deals with T5, GST-CNK^2–384 (Drosophila) (UniProt Q7KNQ9).
T5 sequence: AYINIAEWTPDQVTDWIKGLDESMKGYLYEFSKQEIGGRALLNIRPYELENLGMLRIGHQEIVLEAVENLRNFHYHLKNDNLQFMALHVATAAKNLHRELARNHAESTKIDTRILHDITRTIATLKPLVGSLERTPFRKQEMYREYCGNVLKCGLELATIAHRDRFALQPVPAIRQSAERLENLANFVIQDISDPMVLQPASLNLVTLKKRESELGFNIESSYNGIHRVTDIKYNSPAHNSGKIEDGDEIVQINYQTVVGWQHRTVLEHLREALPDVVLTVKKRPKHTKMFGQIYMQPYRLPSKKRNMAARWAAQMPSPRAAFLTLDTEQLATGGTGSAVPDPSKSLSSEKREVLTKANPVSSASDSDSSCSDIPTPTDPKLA
The description is as above.

Assay [6] addresses T2, Flag-CNK^2–549 (Drosophila). Nature of the assay: pull-down; GST-HYP as bait, CNK^2–549 co-expressed in S2 cells with Ha-RAS^V12, Pyo-RAF, V5-KSR and Myc-MEK (RRKM); total lysates, overnight at 4 °C; immunoblot.

These are yes or no findings as the source states them, for the method shown. For some of these results: In cells and extracts the contact can be indirect. Some entries that bind do so weakly or less than the wild type. For some of these results: Where a sequence is shown, tags or fusion partners need not be part of it.

Here are results for five molecules from article PMC11257983 (2024).

“Myc-MEK E323R (from UniProt Q24324 1-396)”: the binding entry in assay [1] and in assay [2] was “binds” in each case.

B1: KSR^654–966 (domain or fragment, UniProt Q24171 654-966)
chain: TEDGDSGQWRQNSISLKEWDIPYGDLLLLERIGQGRFGTVHRALWHGDVAVKLLNEDYLQDEHMLETFRSEVANFKNTRHENLVLFMGACMNPPYLAIVTSLCKGNTLYTYIHQRREKFAMNRTLLIAQQIAQGMGYLHAREIIHKDLRTKNIFIENGKVIITDFGLFSSTKLLYCDMGLGVPHNWLCYLAPELIRALQPEKPRGECLEFTPYSDVYSFGTVWYELICGEFTFKDQPAESIIWQVGRGMKQSLANLQSGRDVKDLLMLCWTYEKEHRPQFARLLSLLEHLPKKRLARSPSHPVNLSRSAESVF
In the case of B1, the binding result in assay [3] is reported as “binds”.

B2: Pyo-HYP (protein, UniProt Q8ML92 2-106)
chain: GEETINSTQNKTRTKTTRPKAVYLWTVSDVLKWYRRHCGEYTQYEQLFAQHDITGRALLRITDSSLQRMGVTDNRDREAIWREIVKQRLKTDIMEIRDMERLNIY
As for B2, the binding entry in assay [4] and in assay [5] was “binds” in each case.

B3: V5-KSR E926R (protein, UniProt Q24171 1-966)
chain: MSSNNNAPASAPDTGSTNANDPISGSLSVDSNLVIIQDMIDLSANHLEGLRTQCAISSTLTQQEIRCLESKLVRYFSELLLAKMRLNERIPANGLVPHTTGNELRQWLRVVGLSQGTLTACLARLTTLEQSLRLSDEEIRQLLADSPSQREEEELRRLTRAMQNLRKCMESLESGTAASNNDPEQWHWDSWDRPTHIHRGSVGNIGLGNNSTASPRTHHRQHGVKGKNSALANSTNFKSGRQSPSATEELNSTQGSQLTLTLTPSPPNSPFTPSSGLSSSLNGTPQRSRGTPPPARKHQTLLSQSHVQVDGEQLARNRLPTDPSPDSHSSTSSDIFVDPNTNASSGGSSSNVLMVPCSPGVGHVGMGHAIKHRFTKALGFMATCTLCQKQVFHRWMKCTDCKYICHKSCAPHVPPSCGLPREYVDEFRHIKEQGGYASLPHVHGAAKGSPLVKKSTLGKPLHQQHGDSSSPSSSCTSSTPSSPALFQQRERELDQAGSSSSANLLPTPSLGKHQPSQFNFPNVTVTSSGGSGGVSLISNEPVPEQFPTAPATANGGLDSLVSSSNGHMSSLIGSQTSNASTAATLTGSLVNSTTTTSTCSFFPRKLSTAGVDKRTPFTSEYTDTHKSNDSDKTVSLSGSASTDSDRTPVRVDSTEDGDSGQWRQNSISLKEWDIPYGDLLLLERIGQGRFGTVHRALWHGDVAVKLLNEDYLQDEHMLETFRSEVANFKNTRHENLVLFMGACMNPPYLAIVTSLCKGNTLYTYIHQRREKFAMNRTLLIAQQIAQGMGYLHAREIIHKDLRTKNIFIENGKVIITDFGLFSSTKLLYCDMGLGVPHNWLCYLAPELIRALQPEKPRGECLEFTPYSDVYSFGTVWYELICGEFTFKDQPAESIIWQVGRGMKQSLANLQSGRDVKDLLMLCWTYRKEHRPQFARLLSLLEHLPKKRLARSPSHPVNLSRSAESVF
In the case of B3, the binding result in assay [6] is “binds”.

B4: V5-KSR R913E (protein, UniProt Q24171 1-966)
chain: MSSNNNAPASAPDTGSTNANDPISGSLSVDSNLVIIQDMIDLSANHLEGLRTQCAISSTLTQQEIRCLESKLVRYFSELLLAKMRLNERIPANGLVPHTTGNELRQWLRVVGLSQGTLTACLARLTTLEQSLRLSDEEIRQLLADSPSQREEEELRRLTRAMQNLRKCMESLESGTAASNNDPEQWHWDSWDRPTHIHRGSVGNIGLGNNSTASPRTHHRQHGVKGKNSALANSTNFKSGRQSPSATEELNSTQGSQLTLTLTPSPPNSPFTPSSGLSSSLNGTPQRSRGTPPPARKHQTLLSQSHVQVDGEQLARNRLPTDPSPDSHSSTSSDIFVDPNTNASSGGSSSNVLMVPCSPGVGHVGMGHAIKHRFTKALGFMATCTLCQKQVFHRWMKCTDCKYICHKSCAPHVPPSCGLPREYVDEFRHIKEQGGYASLPHVHGAAKGSPLVKKSTLGKPLHQQHGDSSSPSSSCTSSTPSSPALFQQRERELDQAGSSSSANLLPTPSLGKHQPSQFNFPNVTVTSSGGSGGVSLISNEPVPEQFPTAPATANGGLDSLVSSSNGHMSSLIGSQTSNASTAATLTGSLVNSTTTTSTCSFFPRKLSTAGVDKRTPFTSEYTDTHKSNDSDKTVSLSGSASTDSDRTPVRVDSTEDGDSGQWRQNSISLKEWDIPYGDLLLLERIGQGRFGTVHRALWHGDVAVKLLNEDYLQDEHMLETFRSEVANFKNTRHENLVLFMGACMNPPYLAIVTSLCKGNTLYTYIHQRREKFAMNRTLLIAQQIAQGMGYLHAREIIHKDLRTKNIFIENGKVIITDFGLFSSTKLLYCDMGLGVPHNWLCYLAPELIRALQPEKPRGECLEFTPYSDVYSFGTVWYELICGEFTFKDQPAESIIWQVGRGMKQSLANLQSGEDVKDLLMLCWTYEKEHRPQFARLLSLLEHLPKKRLARSPSHPVNLSRSAESVF
B4: the binding entry in assay [2] is given as “binds”.
